{"source": "PubChem BioAssay AID504467", "about": "(National Center for Advancing Translational Sciences (NCATS), 2011)", "note": "Among all 330,000 compounds or so, about 7,700 (2.3%) were called active. The inconclusive results got no clear call from the source; some entries with a clear call stand among them for comparison. The call rests on the fitted dose curve; in most records, active means well fitted inhibition curve with a large enough effect; inconclusive means small, poorly fitted or top-dose-only effect, or effect the other way; inactive means flat fitted curve, though single readings scatter. Potencies beside an inconclusive call are fits to weak or partial responses and may not hold up."}
{"assay": "qHTS screen for small molecules that inhibit ELG1-dependent DNA repair in human embryonic kidney (HEK293T) cells expressing luciferase-tagged ELG1; further: nearly all actives have a fitted effect of over 55% in size; further: potency means the concentration at half of the fitted maximal effect", "settings": "HEK293T ELG1-luciferase reporter, luminescence, 16 h, DNA damage induced by 5-fluorouridine; series mostly up to 46.1 µM", "procedure,_shortened": "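Cells (2,000 per well) received 5-fluorouridine plus test compound or DMSO and were incubated 16 hr at 37 °C, 5% CO2. Luciferase activity was read by luminescence 30 min after ONE-Glo addition; signal suppression marked inhibition of damage-induced ELG1 function.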"}
{"molecule": "COc1cc(-c2nc3n(n2)C(c2ccc(F)cc2)C2=C(CCCC2=O)N3)cc(OC)c1OC", "note": "(stereo not given)", "Potency": "inconclusive: 29.1 µM [inhibitor, single point]"}
{"molecule": "COc1ccc(CNC(=O)C2CCN(S(=O)(=O)c3ccc(Br)s3)CC2)cc1", "Potency": "inconclusive: 20.6 µM [inhibitor, partial curve, poor fit]"}
{"molecule": "O=S(=O)(c1ccc(C2CCCCC2)cc1)N1CCCC1", "Potency": "inactive"}
{"molecule": "CC(=O)c1cc2c(cc1NC(=O)C1CN(C(C)=O)c3ccccc3O1)OCO2", "note": "(stereo not given)", "Potency": "inconclusive: 20.6 µM [inhibitor, single point]"}
{"molecule": "O=C(CN(c1ccccc1)S(=O)(=O)c1ccccc1)Nc1ccccc1C(=O)NCc1ccco1", "Potency": "inconclusive: 25.9 µM [inhibitor, single point]"}
{"molecule": "NC1CCN(c2c(F)cc3c(=O)c(C(=O)O)cn(C4CC4)c3c2Cl)C1", "note": "(stereo not given)", "Potency": "inactive"}
{"molecule": "CC1CCCCC1NC(=O)C1CCN(S(=O)(=O)c2cccc3nonc23)CC1", "note": "(stereo not given)", "Potency": "inactive"}
{"molecule": "CCOC(=O)[C@H]1[C@H]2COc3ccc(Br)cc3[C@@H]2N2C(=O)CN(Cc3ccc(OC)cc3)C(=O)[C@@]12C", "Potency": "inactive"}
{"molecule": "CCOC(=O)c1ccc(COC(=O)c2nonc2N)cc1", "Potency": "inconclusive: 23.1 µM [activator, single point]"}
{"molecule": "O=[N+]([O-])c1ccc(Nc2ccccc2O)c2nonc12", "Potency": "inconclusive: 11.6 µM [inhibitor, partial curve, poor fit]"}
{"molecule": "CCc1ccc(OCC(=O)Nc2ccc(-c3nc4ccccc4o3)c(O)c2)cc1", "Potency": "inconclusive: 3.66 µM [activator, partial curve]"}
{"molecule": "COc1ccccc1N(C(=O)c1snc(C(N)=O)c1N)C(C(=O)NCc1ccccc1)c1ccc(O)cc1", "note": "(stereo not given)", "Potency": "inactive"}
{"molecule": "N#Cc1c(C(F)(F)F)cc(-c2ccco2)nc1SCc1ccncc1", "Potency": "inconclusive: 20.6 µM [inhibitor, single point]"}
{"molecule": "O=C(NCCN1C(=O)S/C(=C\\c2ccc(Cl)c([N+](=O)[O-])c2)C1=O)C1=COCCO1", "Potency": "inconclusive: 25.9 µM [inhibitor, single point]"}
{"molecule": "O=C(Nc1ccc(F)cc1)C1CC(=O)n2ncnc2N1", "note": "(stereo not given)", "Potency": "inconclusive: 0.58 µM [activator, full curve, poor fit]"}
{"molecule": "COc1cccc(-c2nn(C)c3sc(C(=O)NCc4ccc(C)cc4)cc23)c1", "Potency": "inconclusive: 20.6 µM [inhibitor, single point]"}
{"molecule": "CS(=O)(=O)N1CCN(C(=O)c2cccnc2)CC1", "Potency": "inactive"}
{"molecule": "CN1CCN(c2ccccc2NC(=O)c2ccc(N3CCCCC3)c([N+](=O)[O-])c2)CC1", "Potency": "inconclusive: 20.6 µM [inhibitor, single point]"}
{"molecule": "CCOC(=O)c1c(C)n(C)c2ccc(OCC(O)CNCCc3ccccc3)cc12", "note": "(stereo not given)", "Potency": "inconclusive: 18.3 µM [inhibitor, partial curve]"}
{"molecule": "CCCCCCCN1CCN=C1Nc1ccccc1", "Potency": "inactive"}
{"molecule": "COc1ccc(S(=O)(=O)N2CCCCCC2)cc1C(=O)Nc1cccc(C)n1", "Potency": "inconclusive: 18.3 µM [inhibitor, single point]"}
{"molecule": "O=C(CCS(=O)(=O)c1ccccc1)N1CCN(c2ccc(F)cc2)CC1", "Potency": "inconclusive: 20.6 µM [activator, partial curve]"}
{"molecule": "CC(C)OCCCNC(=O)CCC(=O)NNc1nc2ccccc2c2nc(-c3ccccc3)nn12", "Potency": "inconclusive: 20.6 µM [inhibitor, partial curve, poor fit]"}
{"molecule": "COc1ccc(/C=N/NC(=O)C2c3ccccc3-c3ccccc32)cc1", "Potency": "inconclusive: 29.1 µM [inhibitor, partial curve, poor fit]"}
{"molecule": "COc1ccc(C(=O)NC(C)CCc2ccccc2)cc1", "note": "(stereo not given)", "Potency": "inconclusive: 11.2 µM [activator, partial curve, poor fit]"}
{"molecule": "CCC(=NCc1ccco1)c1c(C(F)(F)F)[nH]n(-c2nc3ccccc3s2)c1=O", "Potency": "inconclusive: 10.3 µM [activator, partial curve]"}
{"molecule": "COc1ccc(C(=O)N/N=C/c2ccc(OC)c(CN3CCCc4ccccc43)c2)cc1", "Potency": "inconclusive: 20.6 µM [inhibitor, single point]"}
{"molecule": "Cc1ccn2c(NC(=O)C(C)(C)Oc3ccc(Cl)cc3)c(-c3cccs3)nc2c1", "Potency": "inconclusive: 20.6 µM [inhibitor, single point]"}
{"molecule": "CCCc1nnc(NC(=S)Nc2ccccc2)s1", "Potency": "inconclusive: 8.2 µM [activator, partial curve]"}
{"molecule": "Cc1ccccc1C(=O)c1cccn1CC(=O)NC(C)c1ccc2c(c1)OCCO2", "note": "(stereo not given)", "Potency": "inconclusive: 29.1 µM [inhibitor, single point]"}
{"molecule": "CCOc1cc(C2C(C#N)=C(N)Oc3n[nH]c(-c4ccncc4)c32)cc([N+](=O)[O-])c1O", "note": "(stereo not given)", "Potency": "inconclusive: 32.6 µM [activator, single point]"}
{"molecule": "CC(C)CC(=O)NC(=S)Nc1ccc(N2CCN(C(=O)c3cccs3)CC2)cc1", "Potency": "inconclusive: 18.3 µM [inhibitor, partial curve, poor fit]"}
{"molecule": "Clc1ccccc1OCc1nn2c(-c3ccncc3)nnc2s1", "Potency": "inactive"}
{"molecule": "COCCN=C1NC(=O)C(CC(=O)Nc2cccc(Cl)c2C)S1", "note": "(stereo not given)", "Potency": "inconclusive: 25.9 µM [activator, single point]"}
{"molecule": "O=C(/C=C/c1ccc([N+](=O)[O-])cc1)c1cccs1", "Potency": "inactive"}
{"molecule": "O=C(COc1ccc(-n2ccnc2)cc1)Nc1cccc(F)c1", "Potency": "inconclusive: 23.1 µM [inhibitor, single point]"}
{"molecule": "CSCCC(NC(=O)c1ccco1)C(=O)NNC(=O)c1n[nH]c(=O)c2ccccc12", "note": "(stereo not given)", "Potency": "inactive"}
{"molecule": "Cc1c(C)c2cccnc2c2ncccc12", "Potency": "inconclusive: 2.31 µM [inhibitor, full curve, poor fit]"}
{"molecule": "Cc1ccc(S(=O)(=O)NCC(=O)OCC(=O)NC(=O)c2cccn2C)cc1", "Potency": "inconclusive: 18.4 µM [activator, single point]"}
{"molecule": "COc1ccc(CN(C(=O)c2oc3cc(C)ccc3c2C)C2CCS(=O)(=O)C2)cc1OC", "note": "(stereo not given)", "Potency": "active: 13 µM"}
{"molecule": "CCCN(CCC)c1nc(NC2CCN(C(=O)OCC)CC2)nc(OC)n1", "Potency": "inconclusive: 23.1 µM [inhibitor, single point]"}
{"molecule": "Cc1cc2cc(CN(Cc3ccc4c(c3)OCO4)C(=O)c3ccco3)c(=O)[nH]c2cc1C", "Potency": "inconclusive: 32.6 µM [inhibitor, single point]"}
{"molecule": "O=C(CSc1nc2c([nH]c3ccccc32)c(=O)n1-c1ccccc1)NCC1CCCO1", "note": "(stereo not given)", "Potency": "inconclusive: 18.3 µM [inhibitor, single point]"}
{"molecule": "CCc1nnc(NC(=O)c2ccc3ncsc3c2)s1", "Potency": "inconclusive: 18.3 µM [activator, partial curve]"}
{"molecule": "CC1(C)CC(NC(=O)c2cc(COc3cccc(C(F)(F)F)c3)on2)CCO1", "note": "(stereo not given)", "Potency": "inconclusive: 8.2 µM [activator, partial curve, poor fit]"}
{"molecule": "O=C(N/N=C/c1cccc([N+](=O)[O-])c1)c1cc(-c2ccc3c4c(cccc24)CC3)n[nH]1", "Potency": "inconclusive: 20.6 µM [inhibitor, single point]"}
{"molecule": "Cc1ccc(S(=O)(=O)NC2CC(C)(C)N(O)C(C)(C)C2)cc1", "Potency": "inactive"}
{"molecule": "Cc1[nH]n(-c2ccccc2)c(=O)c1C=NC1CCCCCC1", "Potency": "inactive"}
{"molecule": "COc1cc(NS(=O)(=O)c2ccc(NC(=S)NC(=O)c3ccco3)cc2)nc(OC)n1", "Potency": "inactive"}
{"molecule": "CC(=O)c1ccc(OCCCC(=O)Nc2ccc(C)c(S(=O)(=O)N3CCCCC3)c2)cc1", "Potency": "inconclusive: 9.2 µM [inhibitor, partial curve, poor fit]"}
{"molecule": "CCN1C(=O)[C@@H]2[C@@H](c3ccc(SC4CCCCC4)c(OC)c3)N3CCCC[C@@]3(C(=O)OC)[C@@H]2C1=O", "Potency": "inactive"}
{"molecule": "COc1ccc(S(=O)(=O)NCC2CCCN(Cc3cn(C)nc3C)C2)cc1", "note": "(stereo not given)", "Potency": "inactive"}
{"molecule": "COc1ccc(/C=N/Nc2nccnc2Cl)cc1", "Potency": "inconclusive: 1.03 µM [activator, full curve]"}
{"molecule": "Cc1cc(C)n(CCN(C)C(=O)CCc2nnc(CCC3CCCCC3)o2)n1", "Potency": "inconclusive: 16.4 µM [activator, partial curve]"}
{"molecule": "O=C(NCCN1CCCC1)c1ccc2c(=O)n(CCc3ccccc3)c(=O)[nH]c2c1", "Potency": "inconclusive: 25.9 µM [activator, single point]"}
{"molecule": "CCCCCCSc1ccc([C@@H]2[C@H]3C(=O)N(C)C(=O)[C@H]3[C@]3(C(=O)OC)CCCCN23)cc1", "Potency": "inactive"}
{"molecule": "CCn1c(CSCc2ccccc2)n[nH]c1=S", "Potency": "inactive"}
{"molecule": "CCC(C)Sc1nc2c(c(=O)[nH]c(=O)n2C)n1CC(O)COc1cccc2ccccc12", "note": "(stereo not given)", "Potency": "active: 8.2 µM"}
{"molecule": "O=C(Nc1ccccc1N1CCOCC1)c1ccc([N+](=O)[O-])s1", "Potency": "inconclusive: 16.4 µM [inhibitor, partial curve, poor fit]"}
{"molecule": "CCOc1cc(OCC)cc(C(=O)Nc2cccc(C(C)=O)c2)c1", "Potency": "inconclusive: 29.1 µM [inhibitor, single point]"}
{"molecule": "O=C(COC(=O)COc1ccc(Br)cc1)NCc1ccccc1", "Potency": "inconclusive: 32.6 µM [activator, partial curve, poor fit]"}
{"molecule": "O=C1N/C(=N/N=C/c2ccccc2O)SC1Cc1ccc(F)cc1", "note": "(stereo not given)", "Potency": "inconclusive: 29.1 µM [inhibitor, single point]"}
{"molecule": "NC(=O)[C@H]1CC2(CC(c3cccc(NC(=O)COc4ccc(Cl)cc4)c3)=NO2)CN1C(=O)c1ccc(Cl)cc1", "note": "(stereo not given in full)", "Potency": "inconclusive: 29.1 µM [inhibitor, single point]"}
{"molecule": "NC(=O)Nc1ccc(C(=O)OCC(=O)N2CCCC2=O)cc1", "Potency": "inactive"}
{"molecule": "O=C(COc1cccnc1[N+](=O)[O-])NCc1ccccc1", "Potency": "inconclusive: 29.1 µM [activator, single point]"}
